# Reference: the supplement of paper PMC8728848
# The other results are listed elsewhere or left out.
# B1: Pwp7 (Candida glabrata) (protein)
# chain: MGSSHHHHHHSSGLVPRGSHMASKNPVDFPNLCQYPNLDGAVAGFDTEIYNADPSILINFSLWPILQFPKEWHKTIGRAITTQTNFKLPASDTTLFGVSIPTQNILIEFRGYFIPPKSGTYTFALYLTDDGSAMFLGNDAAFPCGNITSWSNPTNDQVSVSDYDPKKKTLTVYMVAGVAYPLRIAYYNREKGGSLTASFVDPDGLTHSDWNGYIWTLPSCDNCKYS
# Assays:
# Assay in all cases: glycan array binding signal (z-score within array); higher = stronger binding
# Conditions in all cases: glycan notation: IUPAC condensed, linker removed
# Fuc(a1-3)GlcNAc = biological target: Fuc(a1-3)GlcNAc
# Method in brief: (§1)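 Negative Z-scores can be read as non-binding. The Z-score is calculated within each array and then averaged across arrays of one protein sequence at different concentrations or buffers and across linkers. Arrays, 3228 in all, were curated from the Consortium for Functional Glycomics database and kept only where the protein sequence was available.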
# [1] = biological target: Fuc(a1-3)[Gal(b1-4)]Glc6S
# Method in brief: as §1
# [2] = biological target: Fuc(a1-3)[Gal(b1-4)]GlcNAc
# Method in brief: as §1
# [3] = biological target: Fuc(a1-3)[Gal(b1-4)]GlcNAc(b1-2)Man
# Method in brief: as §1
# [4] = biological target: Fuc(a1-3)[Gal(b1-4)]GlcNAc(b1-2)Man(a1-3)[Fuc(a1-3)[Gal(b1-4)]GlcNAc(b1-2)Man(a1-6)]Man(b1-4)GlcNAc(b1-4)GlcNAc
# Method in brief: as §1
# [5] = biological target: Fuc(a1-3)[Gal(b1-4)]GlcNAc(b1-2)Man(a1-3)[Fuc(a1-3)[Gal(b1-4)]GlcNAc(b1-2)Man(a1-6)]Man(b1-4)GlcNAc(b1-4)[Fuc(a1-6)]GlcNAc
# Method in brief: as §1
# [6] = biological target: Fuc(a1-3)[Gal(b1-4)]GlcNAc(b1-3)Gal(b1-3)[Fuc(a1-4)]GlcNAc
# Method in brief: as §1
# [7] = biological target: Fuc(a1-3)[Gal(b1-4)]GlcNAc(b1-3)Gal(b1-4)[Fuc(a1-3)]GlcNAc
# Method in brief: as §1
# [8] = biological target: Fuc(a1-3)[Gal(b1-4)]GlcNAc(b1-3)Gal(b1-4)[Fuc(a1-3)]GlcNAc(b1-3)Gal(b1-4)[Fuc(a1-3)]GlcNAc
# Method in brief: as §1
# [9] = biological target: Fuc(a1-3)[Gal(b1-4)]GlcNAc(b1-3)GalNAc
# Method in brief: as §1
# [10] = biological target: Fuc(a1-3)[Gal(b1-4)]GlcNAc(b1-6)GalNAc
# Method in brief: as §1
# [11] = biological target: Fuc(a1-3)[Gal(b1-4)]GlcNAc(b1-6)[Gal(b1-3)GlcNAc(b1-3)]Gal(b1-4)Glc
# Method in brief: as §1
# [12] = biological target: Fuc(a1-3)[Gal(b1-4)]GlcNAc6S
# Method in brief: as §1
# [13] = biological target: Fuc(a1-3)[Gal3S(b1-4)]Glc
# Method in brief: as §1
# [14] = biological target: Fuc(a1-3)[Gal3S(b1-4)]GlcNAc
# Method in brief: as §1
# [15] = biological target: Fuc(a1-3)[Gal3S(b1-4)]GlcNAc6S
# Method in brief: as §1
# [16] = biological target: Fuc(a1-3)[GalNAc(b1-4)]GlcNAc
# Method in brief: as §1
# [17] = biological target: Fuc(a1-3)[GalNAc(b1-4)]GlcNAc6S
# Method in brief: as §1
# Fuc(a1-4)GlcNAc = biological target: Fuc(a1-4)GlcNAc
# Method in brief: as §1
# Fuc(b1-3)GlcNAc = biological target: Fuc(b1-3)GlcNAc
# Method in brief: as §1
# Gal(a1-2)Gal = biological target: Gal(a1-2)Gal
# Method in brief: as §1
# Gal(a1-3)Gal = biological target: Gal(a1-3)Gal
# Method in brief: as §1
# Gal(a1-3)Gal(b1-3)GlcNAc = biological target: Gal(a1-3)Gal(b1-3)GlcNAc
# Method in brief: as §1
# [18] = biological target: Gal(a1-3)Gal(b1-3)GlcNAc(b1-2)Man
# Method in brief: as §1
# [19] = biological target: Gal(a1-3)Gal(b1-3)GlcNAc(b1-2)Man(a1-3)[Gal(a1-3)Gal(b1-3)GlcNAc(b1-2)Man(a1-6)]Man(b1-4)GlcNAc(b1-4)GlcNAc
# Method in brief: as §1
# [20] = biological target: Gal(a1-3)Gal(b1-3)GlcNAc(b1-3)GalNAc
# Method in brief: as §1
# [21] = biological target: Gal(a1-3)Gal(b1-3)GlcNAc(b1-6)GalNAc
# Method in brief: as §1
# [22] = biological target: Gal(a1-3)Gal(b1-3)[Fuc(a1-4)]GlcNAc(b1-2)Man(a1-3)[Gal(a1-3)Gal(b1-3)[Fuc(a1-4)]GlcNAc(b1-2)Man(a1-6)]Man(b1-4)GlcNAc(b1-4)GlcNAc
# Method in brief: as §1
# Gal(a1-3)Gal(b1-4)Glc = biological target: Gal(a1-3)Gal(b1-4)Glc
# Method in brief: as §1
# Gal(a1-3)Gal(b1-4)GlcNAc = biological target: Gal(a1-3)Gal(b1-4)GlcNAc
# Method in brief: as §1
# [23] = biological target: Gal(a1-3)Gal(b1-4)GlcNAc(b1-2)Man
# Method in brief: as §1
# [24] = biological target: Gal(a1-3)Gal(b1-4)GlcNAc(b1-2)Man(a1-3)[Gal(a1-3)Gal(b1-4)GlcNAc(b1-2)Man(a1-6)]Man(b1-4)GlcNAc(b1-4)GlcNAc
# Method in brief: as §1
# [25] = biological target: Gal(a1-3)Gal(b1-4)GlcNAc(b1-3)GalNAc
# Method in brief: as §1
# [26] = biological target: Gal(a1-3)Gal(b1-4)GlcNAc(b1-6)GalNAc
# Method in brief: as §1
# [27] = biological target: Gal(a1-3)Gal(b1-4)[Fuc(a1-3)]GlcNAc
# Method in brief: as §1
# [28] = biological target: Gal(a1-3)Gal(b1-4)[Fuc(a1-3)]GlcNAc(b1-2)Man(a1-3)[Gal(a1-3)Gal(b1-4)[Fuc(a1-3)]GlcNAc(b1-2)Man(a1-6)]Man(b1-4)GlcNAc(b1-4)GlcNAc
# Method in brief: as §1
# Gal(a1-3)GalNAc = biological target: Gal(a1-3)GalNAc
# Method in brief: as §1
# [29] = biological target: Gal(a1-3)[Gal(a1-4)]Gal(b1-4)GlcNAc
# Method in brief: as §1
# [30] = biological target: Gal(a1-4)Gal(b1-3)GlcNAc(b1-2)Man(a1-3)[Gal(a1-4)Gal(b1-3)GlcNAc(b1-2)Man(a1-6)]Man(b1-4)GlcNAc(b1-4)GlcNAc
# Method in brief: as §1
# Gal(a1-4)Gal(b1-4)Glc = biological target: Gal(a1-4)Gal(b1-4)Glc
# Method in brief: as §1
# Gal(a1-4)Gal(b1-4)GlcNAc = biological target: Gal(a1-4)Gal(b1-4)GlcNAc
# Method in brief: as §1
# [31] = biological target: Gal(a1-4)Gal(b1-4)GlcNAc(b1-2)Man(a1-3)[Gal(a1-4)Gal(b1-4)GlcNAc(b1-2)Man(a1-6)]Man(b1-4)GlcNAc(b1-4)GlcNAc
# Method in brief: as §1
# [32] = biological target: Gal(a1-4)Gal(b1-4)GlcNAc(b1-3)Gal(b1-4)Glc
# Method in brief: as §1
# Gal(a1-4)GlcNAc = biological target: Gal(a1-4)GlcNAc
# Method in brief: as §1
# Gal(a1-6)Glc = biological target: Gal(a1-6)Glc
# Method in brief: as §1
binder,measurement,setting,value
B1,glycan array binding signal (z-score),Fuc(a1-3)GlcNAc,-0.973
same,glycan array binding signal (z-score),[1],2.63
same,glycan array binding signal (z-score),[2],-0.528
same,glycan array binding signal (z-score),[3],0.202
same,glycan array binding signal (z-score),[4],-0.667
same,glycan array binding signal (z-score),[5],-0.531
same,glycan array binding signal (z-score),[6],-0.014
same,glycan array binding signal (z-score),[7],-0.693
same,glycan array binding signal (z-score),[8],-0.285
same,glycan array binding signal (z-score),[9],-0.259
same,glycan array binding signal (z-score),[10],-0.313
same,glycan array binding signal (z-score),[11],-0.056
same,glycan array binding signal (z-score),[12],-1.32
same,glycan array binding signal (z-score),[13],-0.507
same,glycan array binding signal (z-score),[14],-1.3
same,glycan array binding signal (z-score),[15],-0.188
same,glycan array binding signal (z-score),[16],-1.03
same,glycan array binding signal (z-score),[17],-0.422
same,glycan array binding signal (z-score),Fuc(a1-4)GlcNAc,0.017
same,glycan array binding signal (z-score),Fuc(b1-3)GlcNAc,-1.54
same,glycan array binding signal (z-score),Gal(a1-2)Gal,-0.396
same,glycan array binding signal (z-score),Gal(a1-3)Gal,-0.455
same,glycan array binding signal (z-score),Gal(a1-3)Gal(b1-3)GlcNAc,-0.183
same,glycan array binding signal (z-score),[18],-0.541
same,glycan array binding signal (z-score),[19],-0.122
same,glycan array binding signal (z-score),[20],-0.008
same,glycan array binding signal (z-score),[21],0.128
same,glycan array binding signal (z-score),[22],0.871
same,glycan array binding signal (z-score),Gal(a1-3)Gal(b1-4)Glc,-0.325
same,glycan array binding signal (z-score),Gal(a1-3)Gal(b1-4)GlcNAc,-0.314
same,glycan array binding signal (z-score),[23],-0.085
same,glycan array binding signal (z-score),[24],0.288
same,glycan array binding signal (z-score),[25],0.654
same,glycan array binding signal (z-score),[26],0.966
same,glycan array binding signal (z-score),[27],-0.615
same,glycan array binding signal (z-score),[28],1.08
same,glycan array binding signal (z-score),Gal(a1-3)GalNAc,-0.395
same,glycan array binding signal (z-score),[29],-0.721
same,glycan array binding signal (z-score),[30],0.737
same,glycan array binding signal (z-score),Gal(a1-4)Gal(b1-4)Glc,0.252
same,glycan array binding signal (z-score),Gal(a1-4)Gal(b1-4)GlcNAc,-1.37
same,glycan array binding signal (z-score),[31],-0.09
same,glycan array binding signal (z-score),[32],0.097
same,glycan array binding signal (z-score),Gal(a1-4)GlcNAc,-1
same,glycan array binding signal (z-score),Gal(a1-6)Glc,-0.016

# Three records picked at random from those above, as already listed:
binder,measurement,setting,value
B1,glycan array binding signal (z-score),Gal(a1-3)Gal(b1-3)GlcNAc,-0.183
same,glycan array binding signal (z-score),[13],-0.507
same,glycan array binding signal (z-score),[10],-0.313
